In all, about 33,000 sequences were measured (“E-score (-0.5 to 0.5)”: median about -0.016, highest 2% from about 0.3 on). Some of the results follow.
Molecular target: T1, Yer184c (UniProt P39961)
T1 sequence: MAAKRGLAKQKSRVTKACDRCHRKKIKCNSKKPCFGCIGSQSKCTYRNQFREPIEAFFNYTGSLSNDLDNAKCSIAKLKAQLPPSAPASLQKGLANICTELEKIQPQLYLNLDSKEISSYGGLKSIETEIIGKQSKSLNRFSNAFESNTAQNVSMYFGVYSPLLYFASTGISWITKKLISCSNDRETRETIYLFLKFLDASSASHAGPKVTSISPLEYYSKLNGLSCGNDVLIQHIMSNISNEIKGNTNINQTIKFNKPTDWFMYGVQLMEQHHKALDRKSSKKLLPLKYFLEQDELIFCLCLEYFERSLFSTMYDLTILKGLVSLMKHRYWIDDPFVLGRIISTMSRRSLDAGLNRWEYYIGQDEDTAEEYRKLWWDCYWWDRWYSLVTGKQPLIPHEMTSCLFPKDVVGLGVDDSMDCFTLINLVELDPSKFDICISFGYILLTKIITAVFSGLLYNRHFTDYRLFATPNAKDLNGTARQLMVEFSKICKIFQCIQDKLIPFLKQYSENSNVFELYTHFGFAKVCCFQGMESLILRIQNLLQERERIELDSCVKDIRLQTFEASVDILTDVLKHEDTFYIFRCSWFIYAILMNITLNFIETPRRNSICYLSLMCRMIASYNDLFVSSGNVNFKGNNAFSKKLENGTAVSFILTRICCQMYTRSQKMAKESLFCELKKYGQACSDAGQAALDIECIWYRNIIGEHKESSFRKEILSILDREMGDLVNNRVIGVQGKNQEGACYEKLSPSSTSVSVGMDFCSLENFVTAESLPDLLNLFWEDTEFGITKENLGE
Assay: PBM E-score (8-mer binding enrichment) (E-score (-0.5 to 0.5)); higher = stronger / more preferred TF binding
Details: protein concentration: 100 nM; construct: GST-full length
Description: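 Universal 'all 10-mer' protein binding microarrays (Agilent AMADID 015681) probed with GST-tagged S. cerevisiae TFs (full-length or DBD) made by in vitro transcription/translation (PURExpress), about 100-200 nM. Bound TF was detected with fluorescent anti-GST. Each ungapped 8-mer (which stands for itself and its reverse complement) is scored by the PBM enrichment score (E-score), a modified Wilcoxon-Mann-Whitney statistic from -0.5 to +0.5, computed with the Universal PBM Analysis Suite. Scale: above 0.35 generally sequence-specific binding.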

Sequence	PBM E-score
GGCAACGA	0.156
CGGTCTCC	-0.0507
ACGATACG	-0.186
CGAAGGGA	-0.149
CTAGTCCA	-0.119
CCCGACCG	0.101
GAATCGGA	0.318
AGTTTGAT	0.103
CAAAGTGA	0.00689
CAACCCCA	-0.124
CAGACACC	-0.103
AGACACCC	-0.121
AATCAAGC	-0.0867
CAACTTAC	-0.142
CTGGCCCA	-0.316
AGGTGTCG	-0.211
AGCCGCTA	-0.0651
CATCAGGA	0.215
ATATGATA	0.325
TCAGAGCA	-0.228
AAATTCCA	0.216
GCACGGCA	0.166
GGGAGGTA	-0.193
ACTCAAAT	0.00662
ACAACAAC	0.172

Sequence	PBM E-score
GACTTAAC	-0.296
ACGCTGTG	0.0483
AATTAATA	0.407
ATCACGTG	0.0978
ATAATATA	0.323
CGCTCCAG	-0.093
GAGTGCGC	-0.0277
ACTTATTC	0.0575
ACCCGGTC	0.065
AAGCTTCG	0.0989
TCGTGCAA	0.189
CGCATGAC	-0.0474
CCGGCTTC	0.307
AAGTTGAT	0.0745
GAGGGTGC	-0.254
CCTCTCTC	-0.249
AGTGTCTG	0.0373
ACTGATGC	-0.143
CATAATCA	0.121
CCTCACGA	-0.214
TGCGAAAA	0.233
TAACATTA	0.053
AGCAAAGC	-0.157
GTCCGGGA	0.342
ATAATTCC	0.162

Sequence	PBM E-score
ACCTACCC	-0.183
ATCTCACA	-0.0208
CCAATATC	0.102
CGTGCGAC	-0.0614
TAGGACCA	-0.0434
CATCCAAA	-0.0139
GGTTCTCA	0.0404
CACTTCGG	0.204
AGTGGCAG	-0.195
ATTATATG	0.265
CTCAATGA	-0.0551
CCCCGTAG	-0.175
AGTAGTTC	0.246
CAAGCGCC	0.0709
CACAGGAC	0.0145
AGGGTTGC	-0.141
ACTTTAGG	-0.118
AAATCGAT	0.0714
GTCGGGCA	-0.191
ACCTAGAG	-0.224
CCTCTCAG	-0.379
GACTCCGC	-0.0754
GGCGCTAA	-0.0408
CTTTGCAA	0.155
ACCGGAAC	0.398

Sequence	PBM E-score
ACCCGTTG	-0.104
AGACGTTG	0.0176
GAAAAGTC	-0.0181
AAGAGAGG	-0.0707
AAATGTTG	-0.166
TACATGGA	-0.237
AGAATGCT	-0.168
CCAGCCAC	-0.0947
ATTATTGA	-0.016
CCCCGTAA	0.012
GAGCCTAC	-0.00729
ATGAAACG	0.00966
ATGTGGAA	-0.0417
GGAATAAC	0.255
CTGGTTAA	0.191
CCTCTTAG	0.149
ACTTCAGA	-0.00383
TAGCGCCA	-0.177
CAACTGAG	0.0797
CGGTCAAC	0.159
GACAACCA	0.0168
AGACGCCG	0.185
GAAGCCGA	0.287
TAGGGATA	-0.0541
CGGCCCAC	0.093

Sequence	PBM E-score
GGCATCGA	-0.149
CCCTCCGC	-0.136
AATACACA	0.0832
ACCTATGG	-0.0511
CTATCCCA	-0.291
GAGAAACC	0.0354
AGACGAGG	-0.283
CCTCCTTA	-0.179
AGTAATTA	0.11
ACGTGTGA	-0.24
ATAACGCC	-0.0963
ACTGTTCG	0.254
AACTCTTC	-0.103
TAAACGTA	-0.074
ATCGCGTA	-0.172
AACCGGTG	0.214
TAGTTTGA	0.104
CTCGTACA	-0.132
GCTGGGCC	-0.209
CGGGAATC	0.125
TATTCACA	0.218
CACTCGCG	0.059
GCTTGACA	0.0231
AACTGTGT	-0.0437
AGCAAGCA	-0.222

Sequence	PBM E-score
CGAGCAAC	0.0276
TCCATGAA	0.228
GGTTACCA	0.0241
GACGCTGA	0.00183
GCCCCCGC	-0.233
ACGGCCAT	-0.251
GTCGATTA	0.206
TCACGTAA	-0.16
CGGCCAAA	0.258
ATTGTTAA	0.15
CACCGCTA	-0.0823
CTGTTAAG	-0.0513
ATAGAACA	-0.0179
CCTGTTAA	-0.0274
AAAGGTCT	-0.0165
AGAGTGTA	-0.101
CGTCACTA	0.0543
AGCGGCAG	0.0641
CCAATCAG	-0.314
ACCTTTAG	-0.0186
CCGTGTTA	0.0681
ACTAAGGC	-0.0457
ATGTACTA	0.0128
GTAGCGGA	0.186
CGTCGGGA	0.098

Part of the list above, reformatted.
Sequence | PBM E-score
ACCTTTAG | -0.0186
CCGTGTTA | 0.0681
ACTAAGGC | -0.0457
ATGTACTA | 0.0128

Additional results

Sequence	PBM E-score
CTGGTCGC	-0.0771
ATTGGCAA	0.0823
ATTTCCCG	0.328
ACGCGGAT	0.163
TAGAGGAA	0.0258
ATCACGCA	0.0621
AAAGCGCT	0.238
GGCTGAGA	0.0954
AAAAACAA	0.243
CGTCCTCA	-0.168
GACAACTC	0.0832
ACCCCCTC	-0.376
CCATGGTC	-0.223
ATGCAGAG	-0.127
ATGGCGAA	0.0458
CCCCCGGC	0.0145
ATATGGAG	0.0502
GATCCCGA	0.125
GTCCATCA	-0.00208
GTAAGGCA	-0.206
AGGTCCCG	0.104
CACGGCTG	-0.0869

Quoted at random: 2 records from the list.
Sequence	PBM E-score
ACGCGGAT	0.163
GATCCCGA	0.125
